From paper PMC11946196
These are yes or no findings as the source states them, for the method shown. Binding seen in cells or lysates may run through a third protein. Some results given as binding are weak or reduced against the parent protein; the word gives no strength.

Chains of the proteins cited; added tags and fusions are not shown.
UniProt P29590: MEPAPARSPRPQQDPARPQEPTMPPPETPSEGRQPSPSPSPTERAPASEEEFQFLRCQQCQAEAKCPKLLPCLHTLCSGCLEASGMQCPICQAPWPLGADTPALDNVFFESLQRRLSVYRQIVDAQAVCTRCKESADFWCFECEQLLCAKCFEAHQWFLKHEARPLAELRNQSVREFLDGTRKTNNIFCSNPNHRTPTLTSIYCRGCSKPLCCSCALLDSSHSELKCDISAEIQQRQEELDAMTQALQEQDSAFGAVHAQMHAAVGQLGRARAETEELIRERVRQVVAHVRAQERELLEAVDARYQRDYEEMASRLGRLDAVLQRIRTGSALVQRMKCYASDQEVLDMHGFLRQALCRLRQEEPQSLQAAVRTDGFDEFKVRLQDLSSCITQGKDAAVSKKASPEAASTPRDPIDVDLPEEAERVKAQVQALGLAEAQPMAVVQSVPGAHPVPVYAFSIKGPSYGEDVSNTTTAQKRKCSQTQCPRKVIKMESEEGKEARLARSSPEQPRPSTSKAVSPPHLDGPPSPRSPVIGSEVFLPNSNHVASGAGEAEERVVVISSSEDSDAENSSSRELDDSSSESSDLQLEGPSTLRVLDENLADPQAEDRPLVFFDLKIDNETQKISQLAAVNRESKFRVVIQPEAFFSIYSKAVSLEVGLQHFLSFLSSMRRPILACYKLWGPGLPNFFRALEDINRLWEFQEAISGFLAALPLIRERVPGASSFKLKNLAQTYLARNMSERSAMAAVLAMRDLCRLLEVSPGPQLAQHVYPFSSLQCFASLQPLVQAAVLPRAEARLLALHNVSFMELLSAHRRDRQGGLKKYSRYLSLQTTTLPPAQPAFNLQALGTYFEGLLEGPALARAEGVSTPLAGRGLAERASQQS

Tests used:
[1] = target: promyelocytic leukemia protein (human (endogenous in HFFs)) (UniProt P29590); assay: co-IP
[2] = target: α3 isoform of the Na+/K+-ATPase pump (human (endogenous in HFFs)) (UniProt P13637); assay: co-IP

Row | binding [1] | binding [2] | Substance
1 | binds | – | α3 isoform of the Na+/K+-ATPase pump (from UniProt P13637 1-1013)
2 | – | binds | promyelocytic leukemia protein (from UniProt P29590 1-882)
